Laboratory results taken from article PMC7037546, “High Cell Selectivity and Bactericidal Mechanism of Symmetric Peptides Centered on D-Pro–Gly Pairs” (International Journal of Molecular Sciences, 2020).
Non-standard residues stand in square brackets, D forms with d. Residues, ends and D or L forms follow the SMILES beside them. No end group written: not given here.

Experiments:
[1] = system: Gram-positive bacteria; test: Geometric mean of MICs and therapeutic index, Gram (+); type: cell-based; conditions: MHC10/GM against Gram-positive bacteria
Protocol: (§1) The antimicrobial activity of the designed peptides was examined using the micro-dilution method described previously. The bacteria were cultured for 16 h in MHB at 37 °C, and the microbial suspension was diluted to a final concentration of 10^5 colony-forming units (CFU)/mL. Then, 50 µL of MHB containing different concentrations peptides (0.25–256 µM) was mixed with 50 µL of bacterial solution, and the mixture was added to a 96-well plate. […] The assays were performed three times.

[2] = system: Gram-negative bacteria; conditions: MHC10/GM against Gram-negative bacteria
Protocol: as §1

Compound	TI (+) (therapeutic index, MHC10/GM) [1]	TI (−) (therapeutic index, MHC10/GM) [2]
IIRIIRRGGRRIIRII-NH2 [IRGG]	2	24.2
LLRLLRRGGRRLLRLL-NH2 [LRGG]	11.2	55.6
CC(C)C[C@H](NC(=O)[C@H](CC(C)C)NC(=O)[C@H](CCCNC(=N)N)NC(=O)[C@H](CC(C)C)NC(=O)[C@H](CC(C)C)NC(=O)[C@H](CCCNC(=N)N)NC(=O)[C@H](CCCNC(=N)N)NC(=O)CNC(=O)[C@H]1CCCN1C(=O)[C@H](CCCNC(=N)N)NC(=O)[C@H](CCCNC(=N)N)NC(=O)[C@H](CC(C)C)NC(=O)[C@H](CC(C)C)NC(=O)[C@H](CCCNC(=N)N)NC(=O)[C@H](CC(C)C)NC(=O)[C@@H](N)CC(C)C)C(N)=O [LRpG] (H-LLRLLRR[dP]GRRLLRLL-NH2)	13.5	73.1
N=C(N)NCCC[C@H](NC(=O)CNC(=O)[C@H]1CCCN1C(=O)[C@H](CCCNC(=N)N)NC(=O)[C@H](CCCNC(=N)N)NC(=O)[C@H](Cc1ccccc1)NC(=O)[C@H](Cc1ccccc1)NC(=O)[C@H](CCCNC(=N)N)NC(=O)[C@H](Cc1ccccc1)NC(=O)[C@@H](N)Cc1ccccc1)C(=O)N[C@@H](CCCNC(=N)N)C(=O)N[C@@H](Cc1ccccc1)C(=O)N[C@@H](Cc1ccccc1)C(=O)N[C@@H](CCCNC(=N)N)C(=O)N[C@@H](Cc1ccccc1)C(=O)N[C@@H](Cc1ccccc1)C(N)=O [FRpG] (H-FFRFFRR[dP]GRRFFRFF-NH2)	5.7	9.2
FFRFFRRGGRRFFRFF-NH2 [FRGG]	4.8	8
CC[C@H](C)[C@H](N)C(=O)N[C@H](C(=O)N[C@@H](CCCNC(=N)N)C(=O)N[C@H](C(=O)N[C@H](C(=O)N[C@@H](CCCNC(=N)N)C(=O)N[C@@H](CCCNC(=N)N)C(=O)N1CCC[C@@H]1C(=O)NCC(=O)N[C@@H](CCCNC(=N)N)C(=O)N[C@@H](CCCNC(=N)N)C(=O)N[C@H](C(=O)N[C@H](C(=O)N[C@@H](CCCNC(=N)N)C(=O)N[C@H](C(=O)N[C@H](C(N)=O)[C@@H](C)CC)[C@@H](C)CC)[C@@H](C)CC)[C@@H](C)CC)[C@@H](C)CC)[C@@H](C)CC)[C@@H](C)CC [IRpG] (H-IIRIIRR[dP]GRRIIRII-NH2)	2	32
CC(C)C[C@H](NC(=O)CN)C(=O)N[C@@H](CCCNC(=N)N)C(=O)N[C@@H](CC(C)C)C(=O)N[C@@H](CC(C)C)C(=O)N[C@@H](CCCNC(=N)N)C(=O)N[C@@H](CCCNC(=N)N)C(=O)N[C@@H](CC(C)C)C(=O)N[C@@H](CC(C)C)C(=O)N[C@@H](CCCNC(=N)N)C(=O)N[C@@H](CCCNC(=N)N)C(=O)N[C@@H](CC(C)C)C(=O)N[C@@H](CC(C)C)C(=O)N[C@@H](CCCNC(=N)N)C(=O)N[C@@H](CC(C)C)C(=O)N1CCC[C@@H]1C(N)=O [LRα] (H-GLRLLRRLLRRLLRL[dP]-NH2)	0.5	1.3
